Assay results from the supplement of paper PMC4635364.
Counter-ions that a name gives are not always drawn. Some of the results follow. This data set is noisy: repeats of one test often differ as much as different tests do.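 Cells: ReNCell VM human fetal ventral-midbrain neural progenitors, differentiated mitogen-free. Blinded raters compared doublecortin-stained (early neurons) or tyrosine hydroxylase-stained (dopaminergic neurons) images with untreated wells, where 0 means no change. After repeats and both raters were averaged, compounds scoring 2 or above became hits for retesting.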

Experiments:
ReNCell VM [1] = assay: neuronal differentiation score (DCX+ cell fraction vs untreated, manual image score) (score (-3 to 3)); higher = more neuronal differentiation; conditions: 2 uM, 2 weeks
ReNCell VM [2] = assay: dopaminergic neuron differentiation score (TH+ cell fraction vs untreated, manual image score) (score (0 to 3)); higher = more TH+ dopaminergic neuron differentiation; conditions: 2 uM, 4 weeks, BDNF 10 ng/ml + GDNF 10 ng/ml

`COC(=O)Nc1nc2cc(Sc3ccccc3)ccc2[nH]1` [Fenbendazole] was tested, and the neuronal differentiation score (ReNCell VM [1]; library: Prestwick) was inactive: 0 and the “dopaminergic neuron differentiation score” value (ReNCell VM [2]; library: Prestwick) was inactive: 0.
In the case of `COc1ccc2c(c1)CCC1C2CCC2(C)C(NCCCCCCN3C(=O)C=CC3=O)CCC12` (stereo not drawn), the neuronal differentiation score (ReNCell VM [1]; library: LOPAC) was inactive: 0 and the “dopaminergic neuron differentiation score” value (ReNCell VM [2]; library: LOPAC) was inactive: 0.
`COc1cc2c(cc1OC)C(=O)OC2` was tested, and the neuronal differentiation score (ReNCell VM [1]; library: Spectrum) was inactive: 0 and the “dopaminergic neuron differentiation score” value (ReNCell VM [2]; library: Spectrum) was inactive: 0.
In the case of `Cc1ccc(CC2(O)CCN(CCOc3ccc(O)cc3)CC2)cc1`, the neuronal differentiation score (ReNCell VM [1]; library: Tocriscreen) was inactive: 0 and the “dopaminergic neuron differentiation score” value (ReNCell VM [2]; library: Tocriscreen) was inactive: 0.
In the case of `O=C(CCCN1CCC(O)(c2cccc(C(F)(F)F)c2)CC1)c1ccc(F)cc1` [Trifluperidol hydrochloride], the neuronal differentiation score (ReNCell VM [1]; library: LOPAC) was inactive: 0 and the “dopaminergic neuron differentiation score” value (ReNCell VM [2]; library: LOPAC) was inactive: 0.
With `CCOC(=O)[C@H](CCc1ccccc1)N[C@H]1CCc2ccccc2N(CC(=O)O)C1=O` [Benazepril HCl] the neuronal differentiation score (ReNCell VM [1]; library: Prestwick) was inactive: 0 and the “dopaminergic neuron differentiation score” value (ReNCell VM [2]; library: Prestwick) was inactive: 0.
In the case of `CC(C)NC[C@H](O)COc1cccc2[nH]ccc12` [S(-)-Pindolol], the neuronal differentiation score (ReNCell VM [1]; library: LOPAC) was inactive: 0 and the “dopaminergic neuron differentiation score” value (ReNCell VM [2]; library: LOPAC) was inactive: 0.
In the case of `CCCCCCCC/C=C\CCCCCCCC(=O)N[C@@H](CO)Cc1ccc(O)cc1`, the neuronal differentiation score (ReNCell VM [1]; library: Tocriscreen) was inactive: 0 and the “dopaminergic neuron differentiation score” value (ReNCell VM [2]; library: Tocriscreen) was inactive: 0.
For `Nc1ccc(S(=O)(=O)Nc2ncccn2)cc1` [Sulfadiazine], the neuronal differentiation score (ReNCell VM [1]; library: Prestwick) was inactive: 0 and the “dopaminergic neuron differentiation score” value (ReNCell VM [2]; library: Prestwick) was inactive: 0.
In the case of `O=C1N=C(O)NC1(c1ccccc1)c1ccccc1` [Phenytoin sodium], the neuronal differentiation score (ReNCell VM [1]; library: LOPAC) was inactive: 0 and the “dopaminergic neuron differentiation score” value (ReNCell VM [2]; library: LOPAC) was inactive: 0.
For `CC1(C)O[C@@H]2C[C@H]3[C@@H]4C[C@H](F)C5=CC(=O)C=C[C@]5(C)[C@@]4(F)[C@@H](O)C[C@]3(C)[C@]2(C(=O)CO)O1` [Fluocinolone acetonide], the neuronal differentiation score (ReNCell VM [1]; library: Prestwick) was inactive: 0 and the “dopaminergic neuron differentiation score” value (ReNCell VM [2]; library: Prestwick) was inactive: 0.
For `O=C([O-])[C@H]1/C(=C/CO)O[C@@H]2CC(=O)N21.[Li+]`, the neuronal differentiation score (ReNCell VM [1]; library: Spectrum) was inactive: 0 and the “dopaminergic neuron differentiation score” value (ReNCell VM [2]; library: Spectrum) was inactive: 0.
In the case of `CN1CCN(C(c2ccccc2)c2ccccc2)CC1` [Cyclizine hydrochloride], the neuronal differentiation score (ReNCell VM [1]; library: Prestwick) was inactive: 0 and the “dopaminergic neuron differentiation score” value (ReNCell VM [2]; library: Prestwick) was inactive: 0.
For `C=C(C)[C@@H]1CC=C(C(=O)O)CC1` [(-)-Perillic acid], the neuronal differentiation score (ReNCell VM [1]; library: LOPAC) was inactive: 0 and the “dopaminergic neuron differentiation score” value (ReNCell VM [2]; library: LOPAC) was inactive: 0.
In the case of `O=C(CCCN1CCN(c2ccccn2)CC1)c1ccc(F)cc1`, the neuronal differentiation score (ReNCell VM [1]; library: Spectrum) was inactive: 0 and the “dopaminergic neuron differentiation score” value (ReNCell VM [2]; library: Spectrum) was inactive: 0.
In the case of `COC1=C(OC)C(=O)C(CCCCCCCCCCO)=C(C)C1=O`, the neuronal differentiation score (ReNCell VM [1]; library: Spectrum) was inactive: 0 and the “dopaminergic neuron differentiation score” value (ReNCell VM [2]; library: Spectrum) was inactive: 0.
With `CCOc1ccc(C(=O)c2ccc(OC)c(O)c2O)cc1` the neuronal differentiation score (ReNCell VM [1]; library: Spectrum) was inactive: 0 and the “dopaminergic neuron differentiation score” value (ReNCell VM [2]; library: Spectrum) was inactive: 0.
In the case of `Brc1ccc([C@H]2CN3CCSC3=N2)cc1` [S(-)-p-Bromotetramisole oxalate], the neuronal differentiation score (ReNCell VM [1]; library: LOPAC) was inactive: 0 and the “dopaminergic neuron differentiation score” value (ReNCell VM [2]; library: LOPAC) was inactive: 0.
With `CC(=O)N[C@@H](CCC(=O)O)C(=O)O` the neuronal differentiation score (ReNCell VM [1]; library: Spectrum) was inactive: 0 and the “dopaminergic neuron differentiation score” value (ReNCell VM [2]; library: Spectrum) was inactive: 1.
`CC[C@@H]1SC2(CCN(C)CC2)NC1=O` was tested, and the neuronal differentiation score (ReNCell VM [1]; library: LOPAC) was inactive: 0 and the “dopaminergic neuron differentiation score” value (ReNCell VM [2]; library: LOPAC) was inactive: 1.
In the case of `O=C(O)CCc1nc(-c2ccccc2)c(-c2ccccc2)o1`, the neuronal differentiation score (ReNCell VM [1]; library: Spectrum) was inactive: 0 and the “dopaminergic neuron differentiation score” value (ReNCell VM [2]; library: Spectrum) was inactive: 0.
In the case of `COc1cc(/C=C(\C#N)C(N)=O)cc(CSc2nc3ccccc3s2)c1O`, the neuronal differentiation score (ReNCell VM [1]; library: Tocriscreen) was inactive: 0 and the “dopaminergic neuron differentiation score” value (ReNCell VM [2]; library: Tocriscreen) was inactive: 0.
`COc1cc(O)c(C(=O)/C=C/c2ccc(OC)c(O)c2)c(OC)c1` was tested, and the neuronal differentiation score (ReNCell VM [1]; library: Spectrum) was inactive: 0 and the “dopaminergic neuron differentiation score” value (ReNCell VM [2]; library: Spectrum) was inactive: 0.
With `C=CCNC(=O)c1cc([N+](=O)[O-])cc2c(=O)[nH]c(Nc3ccc(Cl)c(Cl)c3)nc12` the neuronal differentiation score (ReNCell VM [1]; library: Tocriscreen) was inactive: 0 and the “dopaminergic neuron differentiation score” value (ReNCell VM [2]; library: Tocriscreen) was inactive: 0.
In the case of `CC(C)(C)c1ccc(C(O)CCCN2CCC(C(O)(c3ccccc3)c3ccccc3)CC2)cc1` (stereo not drawn), the neuronal differentiation score (ReNCell VM [1]; library: Spectrum) was inactive: 0 and the “dopaminergic neuron differentiation score” value (ReNCell VM [2]; library: Spectrum) was inactive: 0.
In the case of `CCCn1cnc2c1c(=O)n(CCCCC(C)=O)c(=O)n2C` [Propentofylline], the neuronal differentiation score (ReNCell VM [1]; library: LOPAC) was inactive: 0 and the “dopaminergic neuron differentiation score” value (ReNCell VM [2]; library: LOPAC) was inactive: 0.
For `C=C[C@@]1(C)CC(=O)[C@]2(O)[C@@]3(C)[C@@H](O)CCC(C)(C)[C@@H]3[C@H](O)[C@H](OC(C)=O)[C@@]2(C)O1`, the neuronal differentiation score (ReNCell VM [1]; library: Spectrum) was inactive: 0 and the “dopaminergic neuron differentiation score” value (ReNCell VM [2]; library: Spectrum) was inactive: 0.
In the case of `CCCCC[C@H](CC(=O)O)C(=O)O`, the neuronal differentiation score (ReNCell VM [1]; library: Spectrum) was inactive: 0 and the “dopaminergic neuron differentiation score” value (ReNCell VM [2]; library: Spectrum) was inactive: 0.
With `OC[C@H]1O[C@@H](c2nc3cc(Cl)c(Cl)cc3[nH]2)[C@H](O)[C@@H]1O` [D-ribofuranosylbenzimidazole] the neuronal differentiation score (ReNCell VM [1]; library: LOPAC) was inactive: 0 and the “dopaminergic neuron differentiation score” value (ReNCell VM [2]; library: LOPAC) was inactive: 0.
With `CCOc1cc(CC(=O)N[C@@H](CC(C)C)c2ccccc2N2CCCCC2)ccc1C(=O)O` the neuronal differentiation score (ReNCell VM [1]; library: Spectrum) was inactive: 0 and the “dopaminergic neuron differentiation score” value (ReNCell VM [2]; library: Spectrum) was inactive: 0.
With `CC(C)c1c(C(=O)Nc2ccccc2)c(-c2ccccc2)c(-c2ccc(F)cc2)n1CC[C@@H](O)C[C@@H](O)CC(=O)O` the neuronal differentiation score (ReNCell VM [1]; library: Spectrum) was inactive: 0 and the “dopaminergic neuron differentiation score” value (ReNCell VM [2]; library: Spectrum) was inactive: 0.
In the case of `C[C@H](CCC(=O)NCC(=O)O)[C@H]1CC[C@H]2[C@@H]3[C@H](O)C[C@@H]4C[C@H](O)CC[C@]4(C)[C@H]3C[C@H](O)[C@]12C` [Glycocholic acid], the neuronal differentiation score (ReNCell VM [1]; library: Phytochemical) was inactive: 0 and the “dopaminergic neuron differentiation score” value (ReNCell VM [2]; library: Phytochemical) was inactive: 0.
With `NC(=O)c1cc[n+](CC2=C(C(=O)[O-])N3C(=O)[C@@H](NC(=O)Cc4cccs4)[C@H]3SC2)cc1` the neuronal differentiation score (ReNCell VM [1]; library: Spectrum) was inactive: 0 and the “dopaminergic neuron differentiation score” value (ReNCell VM [2]; library: Spectrum) was inactive: 0.
In the case of `CC1(C)CC[C@]2(C(=O)O)CC[C@]3(C)C(=CCC4[C@@]5(C)CC[C@@H](O)C(C)(C)C5CC[C@]43C)C2C1` (stereo partly drawn), the neuronal differentiation score (ReNCell VM [1]; library: Spectrum) was inactive: 0 and the “dopaminergic neuron differentiation score” value (ReNCell VM [2]; library: Spectrum) was inactive: 0.
